Each structure is given as a SMILES string.

Experiment [1] deals with Ca channel (T + L, diltiazem site). Type of experiment: binding, rat. Here is the method:
(§1) Binding assays were performed using the following methods:
(§2) Ca channel rat cerebral cortex
(T + L, diltiazem site) and Langer
Ca channel [^3 H] diltiazem
(T + L, diltiazem site) (10 μM)
(§3) Following incubation, the assays were rapidly filtered under vacuum through GF/B or GF/C glass fiber filters (Whatman) and washed with an ice-cold buffer using a Brandel Cell Harvester. Bound radio-activity was determined with a liquid scintillation counter (LS6000, Beckman) using a liquid scintillation cocktail (Formula 989, DuPont NEN).
(§4) The compounds were tested in duplicate on each receptor at a concentration of 10^-5 M. In each experiment, the reference compound for the receptor under investigation was simultaneously tested at 8 concentrations in duplicate to obtain a competition curve in order to validate this experiment.
(§5) The specific radioligand binding of each receptor was defined as the difference between total binding and nonspecific binding determined in the presence of an excess of unlabelled ligand. […] These parameters were obtained by curve fitting using Sigmaplot™ software.
(§6) The percent inhibition of specific radioligand binding induced by each compound (R-, S-, and RS-DEO) was tested at the diltiazem and verapamil sites of the L-type calcium channel.

Experiment [2] concerns Ca channel (T + L, verapamil site). Kind of experiment: Binding to calcium channel, verapamil site ([3H]D 888, rat cerebral cortex). Here is the method:
as §1, §2
(T + L, verapamil site) (1986)
(T + L, verapamil site) (10 μM)
as §3, §4, §5, §6

Consider `CCN(CC)CC#CCOC(=O)[C@](O)(c1ccccc1)C1CCCCC1` [R-OXY, reference compound], for which, in experiment [1], the “Inhibition of diltiazem binding to calcium channel receptors” value turned out to be 86. Moreover, the “Inhibition of verapamil binding to calcium channel receptors” value in experiment [2] is given as 86.

With `CCN(CC)CC#CCOC(=O)[C@@](O)(c1ccccc1)C1CCCCC1` [S-OXY, 4-(diethylamino)-2-butynyl α-cyclohexyl-α-hydroxybenzeneacetate], the “Inhibition of diltiazem binding to calcium channel receptors” value in experiment [1] is 59. In addition, the “Inhibition of verapamil binding to calcium channel receptors” value in experiment [2] is on record as 68.

(Values after US5677346A, “Treating urinary incontinence using (S)-desethyloxybutynin” (Sepracor, Inc., priority 1995, dated 1997).)
